Source: paper PMC5996148
This is one part of the list.

What was measured:
Experiment in all cases: protein microarray (ProtoArray v5.0), streptavidin-Alexa Fluor 647
Details in all cases: 3'-biotin; 20 mM Tris (pH 7.5), 5 mM MgCl2, 100 mM KCl, 0.1% Tween-20, A/T-rich and random oligonucleotide blockers; temperature not stated; high values mean tight binding
C5AR1 (human) = test system: C5AR1 (human)
C5orf3 (human) = test system: C5orf3 (human)
C6orf106 (human) = test system: C6orf106 (human)
C6orf108 (human) = test system: C6orf108 (human)
C6orf118 (human) = test system: C6orf118 (human)
C6orf145 (human) = test system: C6orf145 (human)
C6orf206 (human) = test system: C6orf206 (human)
C6orf48 (human) = test system: C6orf48 (human)
C6orf49 (human) = test system: C6orf49 (human)
C6orf89 (human) = test system: C6orf89 (human)

Sequence “GGTGACAGGGGTATGGGGAGGGG [G4-2 biotinylated (Ct1)]” has a binding signal (C5AR1 (human)) of -0.378 z-score, a binding signal (C5orf3 (human)) of -0.396 z-score and a binding signal (C6orf106 (human)) of -0.373 z-score. It also gave a binding signal (C6orf108 (human)) of -0.362 z-score, a binding signal (C6orf118 (human)) of -0.383 z-score and a binding signal (C6orf145 (human)) of -0.378 z-score. It also gave a binding signal (C6orf206 (human)) of -0.393 z-score, a binding signal (C6orf48 (human)) of -0.397 z-score and a binding signal (C6orf49 (human)) of -0.4 z-score. The binding signal (C6orf89 (human)) was -0.379 z-score.
